PubChem BioAssay AID1259405 – NCATS, 2018
Test: 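Silenced genes that increase secreted GFP made by CHO cells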 (primary screen). Cells: Chinese hamster CHO-K1 ovary cells with stable secreted eGFP expression. Reagents: single siRNA against mouse genes, 0.8 pmol siRNA per well (2 µl of 400 nM stock). Timing: 3 days. Measurement: 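Per-well intracellular GFP measured by laser scanning cytometry, plus viability from ATP luminescence, each relative to plate median of non-targeting control wells, in %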. Scale: GFP, % of control: higher = more GFP per well, higher productivity; viability (ATP), % of control: higher = more viable cells (more ATP). Rule for the call: 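Called active when intracellular GFP, relative to negative control, is at or above 120%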.
This is an unselected part of about 50,000 deposited reagents. Over the whole deposit, about 4,000 (8%) are marked active. 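Mouse siRNA library applied to hamster cells; one well for each siRNA.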 Reagents against one gene are numbered here.

| gene knocked down | reagent no. | GFP, % of control | viability (ATP), % of control | Call |
| --- | --- | --- | --- | --- |
| Pcmt1 | 1 | 97.8 | 90.1 | inactive |
| Pcmt1 | 2 | 141 | 147 | active |
| Pcmt1 | 3 | 124 | 134 | active |
| Ndufa8 | 1 | 76.5 | 120 | inactive |
| Ndufa8 | 2 | 111 | 57.8 | inactive |
| Mpv17l | 1 | 78.5 | 63.7 | inactive |
| Mpv17l | 2 | 58.7 | 73.6 | inactive |
| Mpv17l | 3 | 52.6 | 68.2 | inactive |
| Slc14a1 | 1 | 82.7 | 84.7 | inactive |
| Slc14a1 | 2 | 88 | 59 | inactive |
| Slc14a1 | 3 | 81.8 | 77.8 | inactive |
| Rb1 | 1 | 104 | 84.8 | inactive |
| Rb1 | 2 | 73.3 | 73.9 | inactive |
| Rb1 | 3 | 73.3 | 81.4 | inactive |
| Abhd18 | 1 | 54.4 | 96.5 | inactive |
| Abhd18 | 2 | 68.2 | 52.4 | inactive |
| Abhd18 | 3 | 75.4 | 104 | inactive |
| Klhl17 | 1 | 42.9 | 31.6 | inactive |
| Klhl17 | 2 | 59.8 | 62.8 | inactive |
| Klhl17 | 3 | 105 | 79.8 | inactive |
| Actb | 1 | 61.9 | 85.4 | inactive |
| Actb | 2 | 95.5 | 96 | inactive |
| Slc25a27 | 1 | 88.4 | 106 | inactive |
| Slc25a27 | 2 | 74.5 | 75.3 | inactive |
| Slc25a27 | 3 | 67.8 | 95.8 | inactive |
| Crls1 | 1 | 53.2 | 27.8 | inactive |
| Crls1 | 2 | 60.8 | 64.9 | inactive |
| Crls1 | 3 | 46.9 | 60.7 | inactive |
| Ntm | 1 | 78.3 | 84.1 | inactive |
| Ntm | 2 | 70.3 | 60.2 | inactive |
| Cep85 | 1 | 51.9 | 43.5 | inactive |
| Cep85 | 2 | 58.2 | 46.2 | inactive |
| Cep85 | 3 | 84.2 | 74.3 | inactive |
| Ppy | 1 | 55.3 | 84.5 | inactive |
| Ppy | 2 | 63.1 | 78.5 | inactive |
| Ppy | 3 | 60.2 | 63.1 | inactive |
| Rwdd4a | 1 | 46.1 | 69.3 | inactive |
| Rwdd4a | 2 | 65.3 | 83 | inactive |
| Rwdd4a | 3 | 127 | 152 | active |
| Ptger1 | 1 | 148 | 78.2 | active |
| Ptger1 | 2 | 97 | 100 | inactive |
| Ptger1 | 3 | 70 | 65.8 | inactive |
| Osgin1 | 1 | 93.9 | 78.6 | inactive |
| Osgin1 | 2 | 109 | 62.9 | inactive |
| Osgin1 | 3 | 65.5 | 90.5 | inactive |
| Mall | 1 | 60.4 | 67.3 | inactive |
| Mall | 2 | 128 | 139 | active |
| Mall | 3 | 96.6 | 99.6 | inactive |
| Asah1 | 1 | 51.5 | 34.9 | inactive |
| Asah1 | 2 | 85.2 | 81.8 | inactive |
| Asah1 | 3 | 117 | 122 | inactive |
| Pex11g | 1 | 66.9 | 53.7 | inactive |
| Pex11g | 2 | 90.5 | 62.8 | inactive |
| Pex11g | 3 | 53.8 | 56.6 | inactive |
| 1110006O24Rik | 1 | 71.3 | 89.5 | inactive |
| 1110006O24Rik | 2 | 41.6 | 60.3 | inactive |
| 1110006O24Rik | 3 | 145 | 67.6 | active |
| Vmn1r43 | 1 | 88.8 | 54.7 | inactive |
| Vmn1r43 | 2 | 48.2 | 47.5 | inactive |
| Vmn1r43 | 3 | 54.2 | 86.2 | inactive |
| Lypla1 | 1 | 81.8 | 63.9 | inactive |
| Lypla1 | 2 | 66.9 | 70.1 | inactive |
| Lypla1 | 3 | 67.4 | 86.1 | inactive |
| Anxa1 | 1 | 68.9 | 66.5 | inactive |
| Anxa1 | 2 | 113 | 119 | inactive |
| Anxa1 | 3 | 194 | 74.8 | active |
| Arl3 | 1 | 149 | 81.2 | active |
| Arl3 | 2 | 52.2 | 56.6 | inactive |
| Arl3 | 3 | 85.9 | 83.3 | inactive |
| Itgb2l | 1 | 80.6 | 82.9 | inactive |
| Itgb2l | 2 | 64.3 | 58.4 | inactive |
| Itgb2l | 3 | 116 | 77.4 | inactive |
| Nosip | 1 | 79.1 | 33.1 | inactive |
| Nosip | 2 | 9.91 | 3.15 | inactive |
| Nosip | 3 | 122 | 64.7 | active |
| Hsf1 | 1 | 106 | 99.8 | inactive |
| Hsf1 | 2 | 90.5 | 72.6 | inactive |
| Hsf1 | 3 | 106 | 104 | inactive |
| Vegfb | 1 | 74.6 | 70.3 | inactive |
| Vegfb | 2 | 25.2 | 23.6 | inactive |
| Vegfb | 3 | 53.3 | 66.2 | inactive |
| Or5e1 | 1 | 83.5 | 46.5 | inactive |
| Or5e1 | 2 | 78.2 | 97.9 | inactive |
| Or5e1 | 3 | 104 | 112 | inactive |
